{"source": "patent US12364797B2", "about": "“Apparatus for removing chemotherapy compounds from blood” (Delcath Systems, Inc., priority 2011, dated 2025)", "key": {"[1]": {"assay": "In vivo extraction efficiency, porcine model of chemosaturation with percutaneous hepatic perfusion (CS-PHP)", "parameters": "species or system Yorkshire Cross pigs", "details": "60 min hemofiltration, target flow 500 mL/min, hydrogel ratio 25"}, "[2]": {"assay": "In vitro extraction efficiency, extracorporeal circuit with bovine blood"}}, "note": "Structures can show the parent of a compound that is named as a salt.", "data": [{"smiles": "NC(Cc1ccc(N(CCCl)CCCl)cc1)C(=O)O", "note": "(centres unmarked) [Melphalan HCl, 2-amino-3-[4-[bis(2-chloroethyl)amino]phenyl]-propanoic acid]", "values": [{"measurement": "Chemotherapeutic Removal Efficiency (%) Average ± Standard Deviation", "setting": "[1]; Study 1, pigs n=6, dose 220 mg, no phenylephrine, no bicarbonate", "value": "98.5 ± 0.5", "unit": "%"}, {"measurement": "Chemotherapeutic Removal Efficiency (%) Average ± Standard Deviation", "setting": "[1]; Study 2, pigs n=5, dose 209 mg, phenylephrine and bicarbonate", "value": "96.3 ± 0.3", "unit": "%"}, {"measurement": "Chemotherapeutic Removal Efficiency (%) Average ± Standard Deviation", "setting": "[1]; Study 3, pigs n=10, dose 220 mg, phenylephrine and bicarbonate", "value": "97.5 ± 0.5", "unit": "%"}, {"measurement": "Efficiency (%) Average", "setting": "[2]; dose 110 mg, flow rate per cartridge 250 ml/min, hydrogel ratio 25:1, sample size 6", "value": 99.1, "unit": "%"}, {"measurement": "Efficiency (%) Average", "setting": "[2]; dose 110 mg, flow rate per cartridge 500 ml/min, hydrogel ratio 25:1, sample size 36", "value": 97.2, "unit": "%"}]}, {"smiles": "COc1cccc2c1C(=O)c1c(O)c3c(c(O)c1C2=O)C[C@@](O)(C(=O)CO)C[C@@H]3O[C@H]1C[C@H](N)[C@H](O)[C@H](C)O1", "note": "[Doxorubicin HCl, doxorubicin hydrochloride]", "values": [{"measurement": "Chemotherapeutic Removal Efficiency (%) Average ± Standard Deviation", "setting": "[1]; Study 4, pigs n=5, dose 152 mg, phenylephrine, bicarbonate, dextrose saline", "value": "71.4 ± 5.1", "unit": "%"}, {"measurement": "Efficiency (%) Average", "setting": "[2]; dose 90 mg, flow rate per cartridge 250 ml/min, hydrogel ratio 25:1, sample size 2", "value": 96.4, "unit": "%"}, {"measurement": "Efficiency (%) Average", "setting": "[2]; dose 150 mg, flow rate per cartridge 400 ml/min, hydrogel ratio 25:1, sample size 2", "value": 96.9, "unit": "%"}, {"measurement": "Efficiency (%) Average", "setting": "[2]; dose 150 mg, flow rate per cartridge 400 ml/min, hydrogel ratio 25:1, sample size 5", "value": 95.4, "unit": "%"}]}, {"smiles": "CC[C@@]1(O)C(=O)OCc2c1cc1n(c2=O)Cc2cc3c(CN(C)C)c(O)ccc3nc2-1", "note": "[Topotecan, topotecan]", "values": [{"measurement": "Efficiency (%) Average", "setting": "[2]; doses 6.25, 12.5, 18.75 mg, flow rate per cartridge 250 ml/min, hydrogel ratio 25:1, sample size 3", "value": 90.3, "unit": "%"}, {"measurement": "Efficiency (%) Average", "setting": "[2]; doses 6.25, 12.5, 18.75 mg, flow rate per cartridge 500 ml/min, hydrogel ratio 25:1, sample size 3", "value": 84.3, "unit": "%"}]}]}
